Among the data in PMC7463771 are binding values, retold here.

Protein sequences, listed by entry. Tags and fused reporters are not part of them.
UniProt P00520: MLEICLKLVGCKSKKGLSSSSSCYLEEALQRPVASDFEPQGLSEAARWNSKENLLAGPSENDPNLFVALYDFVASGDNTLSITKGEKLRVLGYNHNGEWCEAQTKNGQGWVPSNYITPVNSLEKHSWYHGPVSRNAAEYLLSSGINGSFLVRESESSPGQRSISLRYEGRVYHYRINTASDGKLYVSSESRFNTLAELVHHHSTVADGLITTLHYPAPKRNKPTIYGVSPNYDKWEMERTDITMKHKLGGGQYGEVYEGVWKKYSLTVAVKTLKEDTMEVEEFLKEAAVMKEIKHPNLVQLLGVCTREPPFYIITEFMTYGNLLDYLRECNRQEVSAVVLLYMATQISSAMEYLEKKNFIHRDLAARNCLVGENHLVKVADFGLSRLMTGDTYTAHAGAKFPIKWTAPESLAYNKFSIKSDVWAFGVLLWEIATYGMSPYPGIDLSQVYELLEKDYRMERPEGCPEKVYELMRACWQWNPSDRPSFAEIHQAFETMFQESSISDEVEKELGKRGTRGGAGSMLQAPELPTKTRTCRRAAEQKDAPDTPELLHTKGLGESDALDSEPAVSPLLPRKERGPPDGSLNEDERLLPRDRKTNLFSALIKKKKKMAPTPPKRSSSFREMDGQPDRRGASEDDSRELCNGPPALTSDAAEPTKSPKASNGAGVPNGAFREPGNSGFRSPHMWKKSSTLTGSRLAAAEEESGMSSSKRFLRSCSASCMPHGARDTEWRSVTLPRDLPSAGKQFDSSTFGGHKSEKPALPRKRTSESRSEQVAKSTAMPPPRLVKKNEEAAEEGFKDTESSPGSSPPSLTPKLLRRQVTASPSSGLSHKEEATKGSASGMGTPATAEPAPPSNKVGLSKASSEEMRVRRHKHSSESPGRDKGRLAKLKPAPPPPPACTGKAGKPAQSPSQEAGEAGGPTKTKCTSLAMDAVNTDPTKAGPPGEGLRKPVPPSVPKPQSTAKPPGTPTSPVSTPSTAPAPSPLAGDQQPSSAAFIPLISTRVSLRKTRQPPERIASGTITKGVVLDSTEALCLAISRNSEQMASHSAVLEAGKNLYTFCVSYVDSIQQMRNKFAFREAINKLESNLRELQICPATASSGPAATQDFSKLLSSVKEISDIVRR
UniProt P46109: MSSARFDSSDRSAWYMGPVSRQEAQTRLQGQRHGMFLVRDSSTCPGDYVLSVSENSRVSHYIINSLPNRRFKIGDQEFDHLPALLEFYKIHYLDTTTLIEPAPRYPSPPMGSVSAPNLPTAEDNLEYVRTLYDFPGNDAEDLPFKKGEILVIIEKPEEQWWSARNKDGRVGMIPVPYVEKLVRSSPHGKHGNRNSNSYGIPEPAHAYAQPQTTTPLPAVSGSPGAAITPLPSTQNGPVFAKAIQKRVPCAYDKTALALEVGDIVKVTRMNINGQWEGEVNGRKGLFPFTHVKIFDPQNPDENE

Assay [1] addresses T1, Gab1 (mouse, mHCC1 cells) (mouse (endogenous in mHCC1)) (UniProt Q9QYY0).
T1 sequence: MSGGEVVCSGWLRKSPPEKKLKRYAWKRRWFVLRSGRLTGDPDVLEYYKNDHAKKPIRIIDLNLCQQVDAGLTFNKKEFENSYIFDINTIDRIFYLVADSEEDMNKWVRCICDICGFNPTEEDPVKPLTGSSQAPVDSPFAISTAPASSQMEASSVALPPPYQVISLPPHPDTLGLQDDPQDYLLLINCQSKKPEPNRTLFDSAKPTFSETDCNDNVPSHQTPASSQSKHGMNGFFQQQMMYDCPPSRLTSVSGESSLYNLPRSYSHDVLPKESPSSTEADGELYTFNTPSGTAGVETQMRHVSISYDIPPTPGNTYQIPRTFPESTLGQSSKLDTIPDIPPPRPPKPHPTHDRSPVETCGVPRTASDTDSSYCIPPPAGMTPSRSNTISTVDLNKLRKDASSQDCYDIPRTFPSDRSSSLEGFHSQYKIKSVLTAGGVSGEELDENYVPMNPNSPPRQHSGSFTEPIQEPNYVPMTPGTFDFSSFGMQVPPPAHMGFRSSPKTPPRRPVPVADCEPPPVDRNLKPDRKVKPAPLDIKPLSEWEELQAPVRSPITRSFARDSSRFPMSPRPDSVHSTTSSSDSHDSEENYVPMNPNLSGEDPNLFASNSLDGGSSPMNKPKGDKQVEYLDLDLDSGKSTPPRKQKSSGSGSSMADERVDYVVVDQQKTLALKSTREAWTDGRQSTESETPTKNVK
Nature of the assay: co-IP; immunoprecipitation of MET, Gab1 or Abl from lysates of mouse Alb-R26^Met mHCC1 cells (control or shC3G); IP buffer 50 mM Tris-HCl pH 7.5, 150 mM NaCl, 1% NP40; Western blot of C3G, MET and P-MET (Y1234/Y1235). A general note: A western blot detects proteins with antibodies after separation by electrophoresis.

Assay [2] concerns the target T2, Gab1 (human (endogenous in Hep3B)) (UniProt Q13480).
T2 sequence: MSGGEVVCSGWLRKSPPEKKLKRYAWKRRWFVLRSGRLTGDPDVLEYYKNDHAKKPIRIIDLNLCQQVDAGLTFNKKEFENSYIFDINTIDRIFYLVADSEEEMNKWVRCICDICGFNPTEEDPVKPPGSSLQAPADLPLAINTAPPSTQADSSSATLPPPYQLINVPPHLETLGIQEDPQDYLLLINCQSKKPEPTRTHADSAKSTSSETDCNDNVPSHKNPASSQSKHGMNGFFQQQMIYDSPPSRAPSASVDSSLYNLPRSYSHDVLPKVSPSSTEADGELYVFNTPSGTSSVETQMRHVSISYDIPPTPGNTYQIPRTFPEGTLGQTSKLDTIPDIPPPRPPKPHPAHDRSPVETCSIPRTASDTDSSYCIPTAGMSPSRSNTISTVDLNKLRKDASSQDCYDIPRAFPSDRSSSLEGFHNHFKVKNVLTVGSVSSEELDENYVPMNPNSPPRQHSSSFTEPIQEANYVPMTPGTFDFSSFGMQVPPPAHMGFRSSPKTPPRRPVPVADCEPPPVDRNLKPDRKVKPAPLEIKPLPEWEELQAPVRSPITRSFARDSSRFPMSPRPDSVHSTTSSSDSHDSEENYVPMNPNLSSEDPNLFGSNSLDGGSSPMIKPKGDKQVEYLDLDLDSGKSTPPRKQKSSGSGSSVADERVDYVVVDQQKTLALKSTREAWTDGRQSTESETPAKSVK
Nature of the assay: co-IP; immunoprecipitation of endogenous Gab1 from Hep3B lysates (non-silenced or shC3G; serum starved, untreated or HGF 5 min); IP buffer 50 mM Tris-HCl pH 7.5, 150 mM NaCl, 1% NP40; Western blot of C3G, Gab1 and CrkL.

For assay [3], the target named is T2, Gab1 (human (endogenous in Hep3B)). The assay can be described thus: co-IP; as a1, lysates of Hep3B cells not treated with HGF.

No constants are given. Whether binding was seen depends on the method and setting. Binding seen in cells or lysates may run through a third protein. Some binding calls cover weakened binding; strength is not graded here.

In the case of “Abl (mouse, mHCC1 cells) (from UniProt P00520 1-1123) (enzyme)”, the binding entry in assay [1] is reported as “no binding”.

In the case of CrkL (from UniProt P46109 1-303), the binding result in assay [2] was “binds”.

B1: C3G (Crk SH3-domain-binding guanine-nucleotide-releasing factor) (protein, UniProt Q13905 1-1077)
chain: MDTDSQRSHLSSFTMKLMDKFHSPKIKRTPSKKGKPAEVSVKIPEKPVNKEATDRFLPEGYPLPLDLEQQAVEFMSTSAVASRSQRQKNLSWLEEKEKEVVSALRYFKTIVDKMAIDKKVLEMLPGSASKVLEAILPLVQNDPRIQHSSALSSCYSRVYQSLANLIRWSDQVMLEGVNSEDKEMVTTVKGVIKAVLDGVKELVRLTIEKQGRPSPTSPVKPSSPASKPDGPAELPLTDREVEILNKTTGMSQSTELLPDATDEEVAPPKPPLPGIRVVDNSPPPALPPKKRQSAPSPTRVAVVAPMSRATSGSSLPVGINRQDFDVDCYAQRRLSGGSHSYGGESPRLSPCSSIGKLSKSDEQLSSLDRDSGQCSRNTSCETLDHYDPDYEFLQQDLSNADQIPQQTAWNLSPLPESLGESGSPFLGPPFQLPLGGHPQPDGPLAPGQQTDTPPALPEKKRRSAASQTADGSGCRVSYERHPSQYDNISGEDLQSTAPIPSVPYAPFAAILPFQHGGSSAPVEFVGDFTAPESTGDPEKPPPLPEKKNKHMLAYMQLLEDYSEPQPSMFYQTPQNEHIYQQKNKLLMEVYGFSDSFSGVDSVQELAPPPALPPKQRQLEPPAGKDGHPRDPSAVSGVPGKDSRDGSERAPKSPDALESAQSEEEVDELSLIDHNEIMSRLTLKQEGDDGPDVRGGSGDILLVHATETDRKDLVLYCEAFLTTYRTFISPEELIKKLQYRYEKFSPFADTFKKRVSKNTFFVLVRVVDELCLVELTEEILKLLMELVFRLVCNGELSLARVLRKNILDKVDQKKLLRCATSSQPLAARGVAARPGTLHDFHSHEIAEQLTLLDAELFYKIEIPEVLLWAKEQNEEKSPNLTQFTEHFNNMSYWVRSIIMLQEKAQDRERLLLKFIKIMKHLRKLNNFNSYLAILSALDSAPIRRLEWQKQTSEGLAEYCTLIDSSSSFRAYRAALSEVEPPCIPYLGLILQDLTFVHLGNPDYIDGKVNFSKRWQQFNILDSMRCFQQAHYDMRRNDDIINFFNDFSDHLAEEALWELSLKIKPRNITRRKTDREEKT
As to B1, the figures for the binding result in assay [2] and in assay [3] were “binds” and “no binding (condition: cells not treated with HGF)”, respectively.
